No constants are given. Whether binding was seen depends on the method and setting. Binding seen in cells or lysates may run through a third protein. Here binding means that the protein was enriched with, or labelled near, the bait; the list need not be complete.
Each substance was assayed against BAG3 (BCL-2-associated athanogene 3) (human (endogenous in HEK293T)) (UniProt O95817) (assay: affinity purification with mass spectrometry; endogenous BAG3 immunoprecipitated with anti-BAG3 antibody and Protein A/G magnetic beads from HEK293T lysate; cells treated with DMSO (basal) or 10 µM MG132 for 6 h; IgG IP (MG132_IgG) as control; label-free quantification, three biological replicates).

Protein sequences, listed by entry. Tags and fused reporters are not part of them. Residues count along the entry.
UniProt Q13561: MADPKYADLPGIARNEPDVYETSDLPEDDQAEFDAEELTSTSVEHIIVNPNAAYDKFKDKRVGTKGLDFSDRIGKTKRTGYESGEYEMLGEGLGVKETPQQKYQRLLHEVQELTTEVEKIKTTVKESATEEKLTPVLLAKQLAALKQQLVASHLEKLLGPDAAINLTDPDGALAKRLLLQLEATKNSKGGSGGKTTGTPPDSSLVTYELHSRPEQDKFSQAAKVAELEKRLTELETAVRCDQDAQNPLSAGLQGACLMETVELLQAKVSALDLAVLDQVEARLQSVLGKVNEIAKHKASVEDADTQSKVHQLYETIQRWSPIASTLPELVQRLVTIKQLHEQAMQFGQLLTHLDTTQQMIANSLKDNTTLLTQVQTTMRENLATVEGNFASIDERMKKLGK
UniProt O43237: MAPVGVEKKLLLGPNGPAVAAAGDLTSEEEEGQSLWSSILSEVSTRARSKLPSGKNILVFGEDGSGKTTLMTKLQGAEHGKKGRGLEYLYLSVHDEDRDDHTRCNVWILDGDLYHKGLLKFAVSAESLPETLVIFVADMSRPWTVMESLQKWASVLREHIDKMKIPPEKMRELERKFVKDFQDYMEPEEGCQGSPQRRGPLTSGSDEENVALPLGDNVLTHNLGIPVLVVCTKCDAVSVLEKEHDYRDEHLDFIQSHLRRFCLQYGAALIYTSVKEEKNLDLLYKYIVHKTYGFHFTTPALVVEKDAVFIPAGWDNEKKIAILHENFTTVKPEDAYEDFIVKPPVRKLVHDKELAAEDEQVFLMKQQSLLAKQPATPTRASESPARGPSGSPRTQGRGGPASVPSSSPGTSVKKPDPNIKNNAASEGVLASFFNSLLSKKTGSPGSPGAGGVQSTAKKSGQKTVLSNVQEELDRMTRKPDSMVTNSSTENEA
UniProt P31943: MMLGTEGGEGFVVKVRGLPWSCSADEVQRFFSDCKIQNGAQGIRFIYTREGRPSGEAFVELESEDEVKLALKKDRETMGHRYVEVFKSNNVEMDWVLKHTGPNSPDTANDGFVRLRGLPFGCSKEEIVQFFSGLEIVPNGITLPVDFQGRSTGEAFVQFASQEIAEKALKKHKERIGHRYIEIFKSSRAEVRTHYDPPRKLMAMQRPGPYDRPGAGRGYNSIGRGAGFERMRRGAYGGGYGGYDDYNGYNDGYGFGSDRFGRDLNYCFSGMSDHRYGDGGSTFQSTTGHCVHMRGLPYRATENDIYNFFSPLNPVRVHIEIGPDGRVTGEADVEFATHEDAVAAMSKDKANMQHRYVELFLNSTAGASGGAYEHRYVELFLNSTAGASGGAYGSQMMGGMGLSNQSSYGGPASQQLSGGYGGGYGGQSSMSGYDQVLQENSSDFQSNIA
UniProt Q14145: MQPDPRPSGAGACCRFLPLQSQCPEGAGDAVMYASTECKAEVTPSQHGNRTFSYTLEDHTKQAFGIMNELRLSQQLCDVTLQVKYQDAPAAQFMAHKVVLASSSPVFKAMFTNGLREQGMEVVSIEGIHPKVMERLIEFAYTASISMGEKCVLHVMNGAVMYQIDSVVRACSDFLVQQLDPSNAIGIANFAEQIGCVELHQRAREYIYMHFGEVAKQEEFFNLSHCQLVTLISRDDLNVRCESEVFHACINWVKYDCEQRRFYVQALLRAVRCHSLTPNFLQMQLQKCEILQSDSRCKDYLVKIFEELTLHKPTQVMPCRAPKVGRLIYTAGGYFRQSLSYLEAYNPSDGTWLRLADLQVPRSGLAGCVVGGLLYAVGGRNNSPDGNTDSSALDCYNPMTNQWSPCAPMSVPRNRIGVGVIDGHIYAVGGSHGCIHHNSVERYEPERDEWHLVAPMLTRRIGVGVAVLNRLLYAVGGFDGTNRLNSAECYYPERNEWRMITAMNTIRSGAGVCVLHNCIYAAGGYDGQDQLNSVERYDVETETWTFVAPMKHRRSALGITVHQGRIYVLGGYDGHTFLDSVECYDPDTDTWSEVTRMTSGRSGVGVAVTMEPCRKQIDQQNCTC
UniProt P11940: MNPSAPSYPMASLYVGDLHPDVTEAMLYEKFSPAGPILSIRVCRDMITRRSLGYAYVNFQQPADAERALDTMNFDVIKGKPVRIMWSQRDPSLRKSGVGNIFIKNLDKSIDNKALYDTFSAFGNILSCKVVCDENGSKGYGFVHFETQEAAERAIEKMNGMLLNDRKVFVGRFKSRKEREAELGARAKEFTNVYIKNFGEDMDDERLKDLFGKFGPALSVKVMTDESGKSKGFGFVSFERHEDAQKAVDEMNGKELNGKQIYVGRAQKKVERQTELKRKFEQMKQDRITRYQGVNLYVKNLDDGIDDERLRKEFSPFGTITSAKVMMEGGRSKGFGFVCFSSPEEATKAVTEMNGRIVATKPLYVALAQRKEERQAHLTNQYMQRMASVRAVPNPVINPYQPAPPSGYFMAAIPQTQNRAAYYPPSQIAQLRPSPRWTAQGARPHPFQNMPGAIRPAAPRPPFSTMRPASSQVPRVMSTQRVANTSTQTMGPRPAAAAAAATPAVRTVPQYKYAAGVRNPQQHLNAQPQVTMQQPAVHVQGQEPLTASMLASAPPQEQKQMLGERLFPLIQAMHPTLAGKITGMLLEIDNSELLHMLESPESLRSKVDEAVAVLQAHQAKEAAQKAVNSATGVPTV
UniProt Q06203, residues 12-517: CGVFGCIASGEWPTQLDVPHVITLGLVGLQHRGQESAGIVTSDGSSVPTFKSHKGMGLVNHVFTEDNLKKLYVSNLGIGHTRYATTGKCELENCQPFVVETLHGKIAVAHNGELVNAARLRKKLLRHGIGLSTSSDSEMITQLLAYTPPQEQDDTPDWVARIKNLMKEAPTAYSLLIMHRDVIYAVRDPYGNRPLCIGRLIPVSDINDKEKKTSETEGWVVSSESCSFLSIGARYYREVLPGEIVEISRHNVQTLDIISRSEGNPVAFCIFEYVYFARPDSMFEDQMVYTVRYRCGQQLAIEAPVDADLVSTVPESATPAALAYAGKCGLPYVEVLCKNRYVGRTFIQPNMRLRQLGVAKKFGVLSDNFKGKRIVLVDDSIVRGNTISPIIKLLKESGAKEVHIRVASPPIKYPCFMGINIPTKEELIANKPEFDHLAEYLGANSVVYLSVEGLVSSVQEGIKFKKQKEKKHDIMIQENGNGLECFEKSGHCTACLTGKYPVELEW
UniProt Q8NDV7: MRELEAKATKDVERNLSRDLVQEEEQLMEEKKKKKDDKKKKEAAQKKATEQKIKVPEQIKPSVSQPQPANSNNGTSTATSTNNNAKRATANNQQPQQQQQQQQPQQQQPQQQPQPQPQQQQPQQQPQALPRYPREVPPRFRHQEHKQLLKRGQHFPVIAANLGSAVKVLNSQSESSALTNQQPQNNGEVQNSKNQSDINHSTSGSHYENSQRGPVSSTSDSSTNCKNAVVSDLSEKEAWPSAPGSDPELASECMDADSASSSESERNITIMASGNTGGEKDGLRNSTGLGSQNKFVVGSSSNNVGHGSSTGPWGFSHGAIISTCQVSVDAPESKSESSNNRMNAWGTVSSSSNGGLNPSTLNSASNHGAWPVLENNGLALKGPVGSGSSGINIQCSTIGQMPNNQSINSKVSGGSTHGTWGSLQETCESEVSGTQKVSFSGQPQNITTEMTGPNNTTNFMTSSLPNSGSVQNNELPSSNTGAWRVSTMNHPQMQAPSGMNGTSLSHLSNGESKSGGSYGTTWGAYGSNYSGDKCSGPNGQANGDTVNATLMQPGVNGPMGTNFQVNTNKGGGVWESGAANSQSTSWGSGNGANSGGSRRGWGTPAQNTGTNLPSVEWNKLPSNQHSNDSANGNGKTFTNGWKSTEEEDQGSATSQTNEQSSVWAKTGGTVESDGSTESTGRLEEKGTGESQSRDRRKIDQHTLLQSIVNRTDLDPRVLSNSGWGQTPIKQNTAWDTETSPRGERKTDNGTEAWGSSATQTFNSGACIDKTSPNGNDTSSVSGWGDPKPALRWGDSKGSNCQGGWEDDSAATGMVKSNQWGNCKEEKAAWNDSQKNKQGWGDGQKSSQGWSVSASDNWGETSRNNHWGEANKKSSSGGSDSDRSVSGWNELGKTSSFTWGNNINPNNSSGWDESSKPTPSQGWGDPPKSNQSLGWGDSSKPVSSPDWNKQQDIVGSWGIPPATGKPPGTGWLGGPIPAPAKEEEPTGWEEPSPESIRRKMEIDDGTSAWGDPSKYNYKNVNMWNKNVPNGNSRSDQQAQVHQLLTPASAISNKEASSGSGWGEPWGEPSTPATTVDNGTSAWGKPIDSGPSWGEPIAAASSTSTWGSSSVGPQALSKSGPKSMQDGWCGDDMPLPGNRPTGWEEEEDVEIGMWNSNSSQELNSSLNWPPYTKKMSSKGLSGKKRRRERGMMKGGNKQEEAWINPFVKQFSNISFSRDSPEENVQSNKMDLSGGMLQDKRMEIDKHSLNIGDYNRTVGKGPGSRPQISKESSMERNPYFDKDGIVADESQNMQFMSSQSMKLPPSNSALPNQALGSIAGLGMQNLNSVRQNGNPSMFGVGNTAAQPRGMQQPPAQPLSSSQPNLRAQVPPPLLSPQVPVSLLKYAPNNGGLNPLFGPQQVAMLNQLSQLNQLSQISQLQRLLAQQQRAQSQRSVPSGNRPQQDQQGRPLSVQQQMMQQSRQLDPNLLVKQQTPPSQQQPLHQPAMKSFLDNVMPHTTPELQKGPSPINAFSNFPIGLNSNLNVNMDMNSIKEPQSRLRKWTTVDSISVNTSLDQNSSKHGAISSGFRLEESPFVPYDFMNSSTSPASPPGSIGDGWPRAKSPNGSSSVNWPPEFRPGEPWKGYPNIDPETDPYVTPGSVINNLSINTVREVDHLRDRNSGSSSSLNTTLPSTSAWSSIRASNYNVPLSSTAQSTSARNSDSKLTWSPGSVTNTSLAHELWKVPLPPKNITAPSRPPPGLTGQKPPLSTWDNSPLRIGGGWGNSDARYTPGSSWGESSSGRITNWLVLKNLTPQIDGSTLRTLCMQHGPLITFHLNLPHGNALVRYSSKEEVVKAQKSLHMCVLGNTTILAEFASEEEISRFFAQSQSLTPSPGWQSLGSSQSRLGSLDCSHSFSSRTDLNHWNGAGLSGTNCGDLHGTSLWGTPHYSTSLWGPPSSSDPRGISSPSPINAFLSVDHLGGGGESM
UniProt Q9BSJ2: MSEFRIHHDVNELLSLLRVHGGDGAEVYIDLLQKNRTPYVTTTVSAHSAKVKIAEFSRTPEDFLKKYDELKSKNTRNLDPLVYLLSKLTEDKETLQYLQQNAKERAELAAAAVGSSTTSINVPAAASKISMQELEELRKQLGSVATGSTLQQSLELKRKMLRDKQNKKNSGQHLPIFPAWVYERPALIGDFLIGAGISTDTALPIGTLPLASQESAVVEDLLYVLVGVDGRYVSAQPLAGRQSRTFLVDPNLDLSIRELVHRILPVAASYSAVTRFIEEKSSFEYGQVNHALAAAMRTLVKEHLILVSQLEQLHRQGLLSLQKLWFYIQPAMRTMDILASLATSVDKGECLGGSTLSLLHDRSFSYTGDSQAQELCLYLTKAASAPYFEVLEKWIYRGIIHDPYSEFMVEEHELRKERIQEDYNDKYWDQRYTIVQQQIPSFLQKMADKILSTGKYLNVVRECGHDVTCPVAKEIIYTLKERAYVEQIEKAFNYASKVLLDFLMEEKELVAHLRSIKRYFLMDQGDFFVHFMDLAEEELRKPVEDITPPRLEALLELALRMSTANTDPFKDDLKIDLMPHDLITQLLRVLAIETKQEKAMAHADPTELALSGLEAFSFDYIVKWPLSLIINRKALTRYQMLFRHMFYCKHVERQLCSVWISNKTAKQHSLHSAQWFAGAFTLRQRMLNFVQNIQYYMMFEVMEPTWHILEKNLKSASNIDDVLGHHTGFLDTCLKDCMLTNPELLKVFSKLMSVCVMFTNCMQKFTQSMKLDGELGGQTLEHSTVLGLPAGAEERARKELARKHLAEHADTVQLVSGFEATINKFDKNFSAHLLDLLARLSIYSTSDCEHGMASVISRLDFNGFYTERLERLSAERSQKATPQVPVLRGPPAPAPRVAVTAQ
UniProt Q8WXI9: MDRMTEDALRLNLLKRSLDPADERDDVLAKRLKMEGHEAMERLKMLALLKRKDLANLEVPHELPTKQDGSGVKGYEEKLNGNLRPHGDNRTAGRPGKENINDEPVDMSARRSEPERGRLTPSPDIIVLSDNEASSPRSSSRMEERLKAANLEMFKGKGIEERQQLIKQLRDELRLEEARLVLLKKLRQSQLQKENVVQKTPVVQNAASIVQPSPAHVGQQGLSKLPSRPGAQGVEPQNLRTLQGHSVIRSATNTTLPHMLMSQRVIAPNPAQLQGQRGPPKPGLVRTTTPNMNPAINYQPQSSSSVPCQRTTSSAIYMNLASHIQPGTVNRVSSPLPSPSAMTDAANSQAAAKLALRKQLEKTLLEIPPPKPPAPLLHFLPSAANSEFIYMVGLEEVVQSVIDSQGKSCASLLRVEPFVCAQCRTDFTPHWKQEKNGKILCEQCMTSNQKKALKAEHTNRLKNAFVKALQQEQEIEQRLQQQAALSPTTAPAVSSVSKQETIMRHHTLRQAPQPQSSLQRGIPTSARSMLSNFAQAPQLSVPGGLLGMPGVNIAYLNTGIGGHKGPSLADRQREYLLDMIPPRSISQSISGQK

binding, binds:
14-3-3 protein beta/alpha (from UniProt P31946 1-246)
26S protease regulatory subunit 8 (from UniProt P62195 1-406)
26S proteasome non-ATPase regulatory subunit 3 (from UniProt O43242 1-534)
26S proteasome non-ATPase regulatory subunit 12 (from UniProt O00232 1-456)
A-kinase anchor protein 12 (from UniProt Q02952 1-1782)
ACTL6A (from UniProt O96019 1-429)
AMOTL2 (from UniProt Q9Y2J4 1-779)
ANXA5 (from UniProt P08758 1-320)
AP2A2 (from UniProt O94973 1-939)
AP2B1 (from UniProt P63010 1-937)
AP2M1 (from UniProt Q96CW1 1-435)
APC/C component ANAPC5 (from UniProt Q9UJX4 1-755)
ATIC (from UniProt P31939 1-592)
ATXN2 (from UniProt Q99700 1-1313)
Actin-related protein 10 (from UniProt Q9NZ32 1-417)
Alpha-actinin-1 (from UniProt P12814 1-892)
CACNA2D1 (from UniProt P54289 25-1103)
CCNB1 (from UniProt P14635 1-433)
CCNB2 (from UniProt O95067 1-398)
CENPE (from UniProt Q02224 1-2701)
CEP250 (from UniProt Q9BV73 1-2442)
CLTC protein, the heavy chain of clathrin (from UniProt Q00610 1-1675)
CNOT3 (from UniProt O75175 1-753)
CNOT10 (from UniProt Q9H9A5 1-744)
COPB1 (from UniProt P53618 1-953)
CORO1C (from UniProt Q9ULV4 1-474)
CPSF6 (from UniProt Q16630 1-551)
CTBP2 (from UniProt P56545 1-445)
CUL4B (from UniProt Q13620 1-913)
CYFIP1 (from UniProt Q7L576 1-1253)
CYFIP2 (from UniProt Q96F07 1-1278)
Coiled-coil domain-containing protein 22 (from UniProt O60826 1-627)
DCTN2 (from UniProt Q13561 1-401)
DCTN4 (from UniProt Q9UJW0 1-460)
DCTN5 (from UniProt Q9BTE1 1-182)
DYNC1LI2 (from UniProt O43237 1-492)
E1 enzyme UBA1 (from UniProt P22314 1-1058)
EIF3CL (from UniProt B5ME19 1-914)
EIF3D (from UniProt O15371 1-548)
EIF3E (from UniProt P60228 1-445)
EIF4G2 (from UniProt P78344 1-907)
EIF4G3 (from UniProt O43432 1-1585)
Eukaryotic translation initiation factor 3 subunit C (from UniProt Q99613 1-913)
Eukaryotic translation initiation factor 3 subunit L (from UniProt Q9Y262 1-564)
Exportin-1 (from UniProt O14980 1-1071)
FUS (from UniProt P35637 1-526)
FXR1 (from UniProt P51114 1-621)
FXR2 (from UniProt P51116 1-673)
Far upstream element-binding protein 3 (from UniProt Q96I24 1-572)
GMPS (from UniProt P49915 1-693)
Glutamine synthetase (from UniProt P15104 1-373)
Guanine nucleotide-binding protein G(k) subunit alpha (from UniProt P08754 1-354)
HDAC2 (from UniProt Q92769 1-488)
HNRNPH1 (from UniProt P31943 1-449)
HSPA4 (from UniProt P34932 1-840)
HSPA6 (from UniProt P17066 1-643)
Histone deacetylase 1 (from UniProt Q13547 1-482)
Histone-binding protein RBBP4 (from UniProt Q09028 1-425)
Kelch-like ECH-associated protein 1 (from UniProt Q14145 1-624)
Kinetochore protein Nuf2 (from UniProt Q9BZD4 1-464)
LARP4 (from UniProt Q71RC2 1-724)
LARP4B (from UniProt Q92615 1-738)
LSM14A (from UniProt Q8ND56 1-463)
MAP4 (from UniProt P27816 1-1152)
N-acetylglucosamine-1-phosphotransferase subunits alpha/beta (from UniProt Q3T906 1-1256)
Obscurin-like protein 1 (from UniProt O75147 1-1896)
PABPC1 (from UniProt P11940 1-636)
PABPC3 (from UniProt Q9H361 1-631)
PIK3R2 (from UniProt O00459 1-728)
PLK1 (from UniProt P53350 1-603)
POLD1 (from UniProt P28340 1-1107)
PPAT (from UniProt Q06203 12-517)
PSMB4 (from UniProt P28070)
PSMC2 (from UniProt P35998 1-433)
PSMC4 (from UniProt P43686 1-418)
PSMD4 (from UniProt P55036 1-377)
PTBP1 (from UniProt P26599 1-557)
Protein FAM91A1 (from UniProt Q658Y4 1-838)
Protein LSM12 homolog (from UniProt Q3MHD2 1-195)
Protein PRRC2C (from UniProt Q9Y520 1-2896)
RNA-binding factor IGF2BP2 (from UniProt Q9Y6M1 1-599)
RPA-related protein RADX (CXorf57) (from UniProt Q6NSI4 1-855)
RUVBL1 (from UniProt Q9Y265 1-456)
Ras GTPase-activating protein-binding protein 1 (from UniProt Q13283 1-466)
Replication protein A 70 kDa DNA-binding subunit (from UniProt P27694 1-616)
SGTA (from UniProt O43765 1-313)
SMARCD1 (from UniProt Q96GM5 1-515)
STAU1 (from UniProt O95793 1-577)
SWI/SNF-related matrix-associated actin-dependent regulator of chromatin subfamily B member 1 (from UniProt Q12824 1-385)
Serine/threonine-protein kinase WNK1 (from UniProt Q9H4A3 1-2382)
Staphylococcal nuclease domain-containing protein 1 (from UniProt Q7KZF4 1-910)
T-complex protein 1 subunit epsilon (from UniProt P48643 1-541)
TNRC6A (from UniProt Q8NDV7 1-1962)
TUBB4B (from UniProt P68371 1-445)
TUBGCP2 (from UniProt Q9BSJ2 1-902)
TUBGCP4 (from UniProt Q9UGJ1 1-667)
TYMS (from UniProt P04818 1-313)
Transcriptional repressor p66-beta (from UniProt Q8WXI9 1-593)
UMPS (from UniProt P11172 1-480)
YTH domain-containing family protein 3 (from UniProt Q7Z739 1-585)
ZNF207 (from UniProt O43670 1-478)
autophagy receptor p62 (SQSTM1) (from UniProt Q13501 1-440)
chaperonin HSPD1 (from UniProt P10809 27-573)
dynein intermediate chain DYNC1I2 (from UniProt Q13409 1-638)
